Screen size: about 1,600 compounds; about 20 (1%) were called active.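 The calls were made as follows: active = ratio of uncleaved NAD to its breakdown product ADP-ribose above 4, meaning the enzyme was inhibited; inactive = the rest.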 The list shows a part of the results.

The chains behind the UniProt entries cited, without tags or fusion partners. Where a name states a change or a piece, a line headed by the entry shows the natural chain unless it says otherwise.
UniProt Q6SZW1: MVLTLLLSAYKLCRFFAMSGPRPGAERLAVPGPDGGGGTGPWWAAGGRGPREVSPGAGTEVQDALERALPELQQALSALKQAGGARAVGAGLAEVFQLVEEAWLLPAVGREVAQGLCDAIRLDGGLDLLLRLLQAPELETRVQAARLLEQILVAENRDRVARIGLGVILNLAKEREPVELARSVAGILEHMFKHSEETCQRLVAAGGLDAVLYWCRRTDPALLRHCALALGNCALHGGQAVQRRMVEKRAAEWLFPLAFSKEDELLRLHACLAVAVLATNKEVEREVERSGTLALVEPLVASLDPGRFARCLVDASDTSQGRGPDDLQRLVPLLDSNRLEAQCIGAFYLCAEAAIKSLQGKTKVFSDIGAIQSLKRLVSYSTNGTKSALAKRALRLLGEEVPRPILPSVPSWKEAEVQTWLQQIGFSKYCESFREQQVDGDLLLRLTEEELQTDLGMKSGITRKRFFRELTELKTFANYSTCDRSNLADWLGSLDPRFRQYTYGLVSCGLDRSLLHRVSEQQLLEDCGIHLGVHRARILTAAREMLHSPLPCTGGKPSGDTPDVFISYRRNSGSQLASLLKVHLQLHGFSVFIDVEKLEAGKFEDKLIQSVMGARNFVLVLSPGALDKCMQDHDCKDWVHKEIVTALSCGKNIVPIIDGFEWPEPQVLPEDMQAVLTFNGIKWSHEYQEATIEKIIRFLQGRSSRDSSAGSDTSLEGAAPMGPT

The test deals with NAD(+) hydrolase SARM1 (Homo sapiens) (UniProt Q6SZW1). In words: SARM1 TIR NADase inhibitors by HPLC, primary screen, cell lysate, HPLC readout (AID 1508615).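 Also: substrate NAD at 5 µM with 60 min at 37 °C.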 The note with it: HEK293T SAM-TIR lysate, at 5 µM, active compounds read high.
`O=C1CN=C(c2ccc[nH]2)c2cc(Cl)ccc2N1`: the NAD/ADPR ratio is inactive: 3.
Then `Cc1ccc2cc3c(ccc4ccccc43)c3c2c1CC3`, with inactive: 3; and `O=[N+]([O-])c1ccc(-c2ccccc2)c([As](=O)(O)O)c1`, with inactive: 3; and `COc1ccc(O)c2c(=O)c3c(OC)cc4c(c3oc12)C1C=COC1O4` (stereo not drawn), with inactive: 3.
Take `COc1cc2c(cc1OC)C13CCN4CC5=CCOC6CC(=O)N2C1C6C5CC43` (stereo not drawn) (tested in a mixture with another compound): the NAD/ADPR ratio was inactive: 3.
`CCOC(=O)c1ccc2[nH]c(-c3ccc(S(=O)(=O)F)cc3)cc(=O)c2c1`: the NAD/ADPR ratio is inactive: 3.
On to `c1ccc(C2NCCc3[nH]cnc32)cc1` (stereo not drawn), for which the NAD/ADPR ratio is inactive: 3.
With `C[C@H]1CC[C@@]2(C)[C@@H](CC[C@@H]3[C@@H]2CC[C@]2(C)[C@@H](O)CC[C@@H]32)C1`, the NAD/ADPR ratio is inactive: 3.
With `CCOP(=O)(OCC)/C(C#N)=C/c1ccc(Br)cc1`, the NAD/ADPR ratio is inactive: 3.
Turning to `NN=C1C(Cl)=C(Cl)C(Cl)=C1Cl`, the NAD/ADPR ratio is inactive: 3.
Consider `O=c1cccc2n1CC1CNC[C@H]2C1`, for which the NAD/ADPR ratio was inactive: 3.
Turning to `c1cncc(C2Nc3cccc4cccc(c34)N2)c1`, the NAD/ADPR ratio was inactive: 3.
In the case of `CCN(CC)c1ccc(C=C2C(=O)NC(=S)NC2=O)cc1`, the NAD/ADPR ratio is active: 5.3.
`O=c1cccc2n1C[C@H]1C[C@@H]2CN2CCCC[C@@H]12`: the NAD/ADPR ratio is inactive: 3.
Take `N#CC12CNCC1CN=N2` (stereo not drawn): the NAD/ADPR ratio is inactive: 3.
On to `c1cnc2c(c1)ccc1ncccc12`, for which the NAD/ADPR ratio was inactive: 3.
As for `Cc1nc(C)c(C(=O)N/N=C/c2ccc(N(CCCl)CCCl)cc2)s1`, the NAD/ADPR ratio was inactive: 3.
Regarding `CN1CCN(c2nc(N)cc(=O)[nH]2)CC1`, the NAD/ADPR ratio is inactive: 3.
On to `O=C1N[C@H]2[C@H](O)[C@H](O)[C@@H](O)[C@H](O)[C@@H]2c2cc3c(c(O)c21)OCO3`, for which the NAD/ADPR ratio was inactive: 3.
With `CC(C)(C)c1cc(C=C(C#N)C#N)cc(C(C)(C)C)c1O`, the NAD/ADPR ratio is inactive: 3.
For the molecule `O=C1C[C@@H]2OCC=C3C[N+]4([O-])CC[C@]56c7ccccc7N1[C@H]5[C@H]2[C@H]3C[C@@H]64` (stereo partly drawn), the NAD/ADPR ratio is inactive: 3.
Then `FCCN(CCF)c1cccc(Cl)c1`, with inactive: 3; and `C=C1C/C(=C/C)C(=O)O[C@@H]2CCN3CC=C(COC(=O)[C@]1(C)O)[C@H]23`, with inactive: 3.
On to `O=P(OC1=CCCCC1)(c1ccccc1)c1ccccc1`, for which the NAD/ADPR ratio is inactive: 3.
Consider `O=[N+]([O-])c1cc([As](=O)(O)c2ccc(O)c([N+](=O)[O-])c2)ccc1O`, for which the NAD/ADPR ratio is inactive: 3.
The same measure for `Nc1nc(N)c2cnnn2n1`: inactive: 3; for `O=C1/C(=C\c2ccccc2)C2OCC=C3CN4CCC56c7ccccc7N1C5C2C3CC46` (stereo not drawn): inactive: 3.
Regarding `CSc1nc(N)c(N=Nc2ccc([As](=O)(O)O)cc2)c(=O)[nH]1`, the NAD/ADPR ratio is inactive: 3.

Values taken from PubChem BioAssay AID1508615 (Milbrandt Lab, Department of Genetics, Washington …, 2020).
